Data as given in PubChem BioAssay AID1259308 (NCATS, 2017).
The deposit covers about 59,000 reagents; this is a part drawn at random. About 1,510 of them (2.6%) were called active. 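Calls use total luciferase alone and ignore viability, so some active siRNAs may act by altering cell number.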 Reagents against one gene are numbered here. Further read-outs or replicates are left out here.

- Purpose: 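Knock-downs that increase output of a recombinant reporter protein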 (primary screen)
- Cell system: human HEK293 embryonic kidney cells stably expressing firefly luciferase (HEK-CMV-Luc2-Hygro)
- Reagents: single siRNA against human genes, 0.8 pmol siRNA per well
- Timing: 72 h
- Measurement: 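Luciferase light (ONE-Glo) measured on one replicate plate set and viability (CellTiter-Glo) on the other, scaled to a negative control siRNA, with robust z-scores and luciferase per cell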
- Reading the numbers: total luciferase, z-score: higher = more reporter protein produced
- Call rule: 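An siRNA counts as active if its total luciferase robust z-score exceeds 3; genes with two or more such siRNAs out of three were retested with fresh siRNAs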
- Meaning of the calls: active = raised luciferase; inactive = no rise

LOC400870 (retired record) (GeneID 400870) #1 — total luciferase, z-score: 0.612; Outcome: inactive
LOC400870 (retired record) (GeneID 400870) #2 — total luciferase, z-score: 0.138; Outcome: inactive
LOC400870 (retired record) (GeneID 400870) #3 — total luciferase, z-score: -0.227; Outcome: inactive
ZNF319 (GeneID 57567) #1 — total luciferase, z-score: 0.396; Outcome: inactive
ZNF319 (GeneID 57567) #2 — total luciferase, z-score: 0.075; Outcome: inactive
ZNF319 (GeneID 57567) #3 — total luciferase, z-score: -0.923; Outcome: inactive
BCL2L12 (GeneID 83596) #1 — total luciferase, z-score: 1.36; Outcome: inactive
BCL2L12 (GeneID 83596) #2 — total luciferase, z-score: -0.501; Outcome: inactive
BCL2L12 (GeneID 83596) #3 — total luciferase, z-score: -1.46; Outcome: inactive
ASCL5 (GeneID 647219) #1 — total luciferase, z-score: 0.0521; Outcome: inactive
ASCL5 (GeneID 647219) #2 — total luciferase, z-score: 0.82; Outcome: inactive
ASCL5 (GeneID 647219) #3 — total luciferase, z-score: 0.0702; Outcome: inactive
ASCL5 (GeneID 647219) #4 — total luciferase, z-score: 0.121; Outcome: inactive
ASCL5 (GeneID 647219) #5 — total luciferase, z-score: -1.89; Outcome: inactive
ASCL5 (GeneID 647219) #6 — total luciferase, z-score: -0.357; Outcome: inactive
EMC1 (GeneID 23065) #1 — total luciferase, z-score: 0.475; Outcome: inactive
EMC1 (GeneID 23065) #2 — total luciferase, z-score: -1.46; Outcome: inactive
EMC1 (GeneID 23065) #3 — total luciferase, z-score: 0.091; Outcome: inactive
SLC39A11 (GeneID 201266) #1 — total luciferase, z-score: -0.283; Outcome: inactive
SLC39A11 (GeneID 201266) #2 — total luciferase, z-score: -0.395; Outcome: inactive
SLC39A11 (GeneID 201266) #3 — total luciferase, z-score: 0.277; Outcome: inactive

An excerpt taken from the entries so far, as a working copy:
ZNF319 (GeneID 57567) #2 — total luciferase, z-score: 0.075; Outcome: inactive
ZNF319 (GeneID 57567) #3 — total luciferase, z-score: -0.923; Outcome: inactive
